# Data from PubChem BioAssay AID445 (National Center for Advancing Translational Sciences (NCATS), 2006).
# This is one part of the list. Further columns of the screen follow, without active or inactive calls. Most of these compounds were active or inconclusive in the main read-out, so they are no random draw. Potencies come from curve fits of mixed quality, noted in brackets.
# Assay: IkB Signaling
# Details: ABC-DLBCL IkBa-CBG/CBR dual luciferase ratio (green luciferase fused to IkBa over red control in OCI-Ly3 lymphoma cells), 4 h
# How it was run: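 In this assay, an IκBα–CBG68 fusion accumulates when IKK-driven degradation is blocked; native CBR normalizes for cell number. OCI-Ly3 cells were treated 4 h with compound and doxycycline, then green and red light read after Chroma-Glo addition.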
# [1] = measured here: control luc red channel unless noted
# [2] = measured here: IkB-luc green channel
# [3] = measured here: control luc red channel
smiles,measurement,setting,value
CCn1cc2nc(SCc3cccc(OC)c3)n(Cc3ccc(Cl)cc3)c(=O)c2n1,AC50,[1],"20 µM [falling, single point]"
COc1ccccc1NC(=O)c1cc(C(=O)O)ccc1C(=O)O,AC50,[1],"10 µM [falling, partial curve]"
COc1ccc(OC)c(CCNC(=O)Cn2sc3nc(C)cc(C)c3c2=O)c1,AC50,[2],"39.8 µM [falling, single point]"
same,AC50,[3],"25.1 µM [falling, single point]"
CC1=C(C(=O)Nc2ccccc2Cl)C(c2cccs2)n2ncnc2N1 (configuration not stated),AC50,[1],"31.6 µM [falling, partial curve]"
O=S(=O)(NCc1ccccc1)c1ccc2[nH]c3c(c2c1)CCCCC3,AC50,[1],"39.8 µM [rising, partial curve, poor fit]"
COc1cccc(NS(=O)(=O)c2ccc3[nH]cc(C(=O)NC4CCCCC4)c(=O)c3c2)c1,AC50,[1],"25.1 µM [falling, partial curve]"
COc1ccccc1CCNC(=O)Cc1c(C)c2c(cc(C)c3c(C)coc32)oc1=O,AC50,[1],"0.316 µM [rising, full curve, poor fit]"
COc1ccc(N2C(=O)C(CC(=O)Nc3ccc(F)cc3)N(CCC3=CCCCC3)C2=O)cc1 (configuration not stated),AC50,[1],"20 µM [falling, partial curve]"
O=C(NC1CC(=O)N(c2cccc(F)c2)C1)C1CCCCC1 (configuration not stated),AC50,[1],"3.98 µM [falling, single point]"
COc1ccc(Cl)cc1NC(=O)CN1c2ccccc2S(=O)(=O)c2ccccc21,AC50,[1],"5.01 µM [falling, partial curve]"
O=C(CSC1=Nc2ccccc2N=C(c2ccc(F)cc2)C1)Nc1cc(F)ccc1F,AC50,[1],"3.16 µM [falling, single point]"
COc1ccccc1CCNC(=O)c1cc2ccccn2n1,AC50,[1],"15.8 µM [falling, partial curve]"
CCCN1C(=O)CN(C2CCCCCC2)C(=O)C1c1ccc(OCC)c(OC)c1 (configuration not stated),AC50,[1],"1.26 µM [rising, partial curve]"
COc1ccc(CNC(=O)C2COc3ccccc3O2)c(OC)c1 (configuration not stated),AC50,[1],"20 µM [falling, partial curve]"
CCOc1ccccc1CNC(=O)CCCn1nc(C)c2sc3ccccc3c2c1=O,AC50,[1],"15.8 µM [falling, partial curve]"
COc1cc(NC(=O)Cn2nc(C(F)(F)F)c3c2CCCC3)cc(OC)c1OC,AC50,[1],"20 µM [falling, single point]"
O=C1C(C=NCc2ccco2)=C(O)c2ccccc21,AC50,[1],"12.6 µM [falling, partial curve]"
O=C(Nc1ccc(F)cc1F)c1cc2ccc3cccnc3c2[nH]1,AC50,[1],"0.158 µM [falling, partial curve]"
CCOC(=O)c1ccc(NC(=O)c2c(NCc3cccc(OC)c3)sc3c2CCC3)cc1,AC50,[1],"7.94 µM [rising, single point]"
Cn1cc(S(=O)(=O)N2CCCCCC2)cc1C(=O)Nc1ccccc1F,AC50,[1],"10 µM [falling, partial curve]"
CN1CCN(C(=O)c2cc(-c3ccccc3)on2)CC1,AC50,[1],"12.6 µM [falling, partial curve]"
COc1ccc2oc(-c3ccc(C)c(NC(=O)c4sc5ccccc5c4Cl)c3)nc2c1,AC50,[1],"39.8 µM [falling, partial curve, poor fit]"
CCc1cc2c(N3CCN(c4nnc(CC)s4)CC3)ncnc2s1,AC50,[1],"15.8 µM [falling, partial curve]"
COc1ccc2c(Cc3c4ccccc4cc4ccccc34)cncc2c1O,AC50,[1],"3.98 µM [rising, partial curve] [measured here: IkB-luc green channel]"
COc1cccc(C(=O)NCC(c2ccc(N(C)C)cc2)N2CCc3ccccc32)c1OC (configuration not stated),AC50,[1],"31.6 µM [falling, single point]"
COc1cccc(-c2nn(C)c3sc(C(=O)NCc4ccc(C)cc4)cc23)c1,AC50,[1],"3.98 µM [falling, full curve]"
CCOc1ccc(NS(=O)(=O)c2ccc3[nH]cc(C(=O)NC(C)CC)c(=O)c3c2)cc1 (configuration not stated),AC50,[1],"15.8 µM [falling, partial curve]"
Cc1ccc(NC(=O)CSc2ncc3c(n2)-c2ccccc2N(C)S3(=O)=O)c(Cl)c1,AC50,[2],"3.16 µM [rising, single point]"
same,AC50,[3],"1.26 µM [rising, full curve]"
CCC(CC)C(=O)Nc1cccc(-c2nc3ncccn3c2C)c1,AC50,[1],"39.8 µM [falling, single point]"
Cc1cccc(/C=C\c2ccccc2)n1,AC50,[1],"3.16 µM [rising, partial curve]"
CCC1CN(C(=O)N2CCC(C(=O)NCCCc3ccccc3)CC2)c2ccccc2O1 (configuration not stated),AC50,[1],"15.8 µM [falling, partial curve]"
Cc1cccc(-c2noc(CCC(=O)Nc3ccccc3)n2)c1,AC50,[1],"25.1 µM [falling, partial curve]"
COc1cccc(C(=O)Nc2cccc(-c3nnc(-c4ccccc4)o3)c2)c1,AC50,[1],"10 µM [falling, partial curve]"
CCN1CCN(c2cc(C)c3cc(NC(=O)c4cc(Br)ccc4Cl)ccc3n2)CC1,AC50,[1],"39.8 µM [falling, single point]"
CCCC12CN3CC(C)(CN(C1)C3c1cn(CC)c3ccccc13)C2=O (configuration not stated),AC50,[1],"39.8 µM [falling, single point]"
CCOC(=O)c1c(C)[nH]c(CCC(=O)Nc2ccccc2OCC)c1C,AC50,[1],"31.6 µM [falling, partial curve]"
O=C(NCc1nc2ccccc2[nH]1)c1ccc(Cl)c(S(=O)(=O)N2CCCC2)c1,AC50,[1],"6.31 µM [rising, single point] [measured here: IkB-luc green channel]"
O=C(NCc1ccccc1Cl)c1ccc2nc(Cc3ccccc3)oc2c1,AC50,[1],"31.6 µM [falling, single point]"
CCC(=O)N1c2ccccc2CC1C(=O)NCCN1CCN(c2cccc(Cl)c2)CC1 (configuration not stated),AC50,[1],"20 µM [falling, partial curve]"
COc1cccc(-c2nnc(NC(=O)c3ccc(S(=O)(=O)N4CC(C)OC(C)C4)cc3)o2)c1 (configuration not stated),AC50,[2],"31.6 µM [rising, single point]"
same,AC50,[3],"3.98 µM [falling, partial curve]"
CC1(C)Cc2c(C#N)c(N3CCCC3)nc(-c3ccco3)c2CO1,AC50,[1],"10 µM [falling, partial curve]"
COc1ccc(C(=O)Nc2cc3cc(Cl)ccc3oc2=O)cc1OC,AC50,[1],"3.16 µM [rising, full curve]"
Cc1cccc2c1-c1sc(C(=O)Nc3ccccc3C(N)=O)cc1CO2,AC50,[1],"0.0158 µM [falling, full curve]"
Cc1ccccc1OCC(=O)NCC(c1ccc(Cl)cc1)N1CCOCC1 (configuration not stated),AC50,[1],"31.6 µM [falling, single point]"
Cc1cc(C)cc(NC(c2cccc(Cl)c2)c2nnc(-c3ccccc3)o2)c1 (configuration not stated),AC50,[1],"39.8 µM [falling, single point]"
O=C(Nc1cccc2cccnc12)c1cccc2c(Br)cccc12,AC50,[1],"0.316 µM [rising, full curve]"
CCc1cc2c(cc3c(=O)n(CC(=O)NC4CCC(C)CC4)nc(CC)n32)s1 (configuration not stated),AC50,[1],"5.01 µM [rising, single point]"
COc1ccc(-n2c(Cc3ccccc3)nnc2SCc2nc(-c3ccccc3C)no2)cc1,AC50,[1],"25.1 µM [falling, single point]"
Cc1ccc2onc(CNC(=O)N(C)Cc3ccccc3)c2c1,AC50,[1],"39.8 µM [rising, partial curve, poor fit]"
CCOC(=O)c1ccc(NC(=O)c2cccc3c(=O)c4c([nH]c23)CCCC4)cc1,AC50,[1],"0.316 µM [rising, full curve]"
O=C1c2[nH]nc(-c3ccccc3O)c2C(c2cccc(Br)c2)N1Cc1ccncc1 (configuration not stated),AC50,[1],"25.1 µM [falling, partial curve]"
O=C(Nc1ccc(Br)cc1F)c1ccc2nc(CCc3ccccc3)oc2c1,AC50,[1],"25.1 µM [falling, single point]"
Cc1cc2cc(CN(Cc3ccc4c(c3)OCO4)C(=O)c3ccco3)c(=O)[nH]c2cc1C,AC50,[2],"31.6 µM [falling, partial curve]"
same,AC50,[3],"20 µM [falling, partial curve]"
CCCN(CCC)c1nc(NC2CCN(C(=O)OCC)CC2)nc(OC)n1,AC50,[1],"12.6 µM [falling, partial curve]"
CC1N=C2c3ccccc3N=C(SCC(=O)NCc3ccc(Cl)cc3)N2C1=O (configuration not stated),AC50,[1],"10 µM [falling, partial curve]"
COc1cccc(-c2n[nH]c3c2C(c2cccc(O)c2)N(C)C3=O)c1 (configuration not stated),AC50,[1],"20 µM [falling, partial curve]"
Cc1cc(C)c2ccc(N)nc2c1O,AC50,[2],"15.8 µM [rising, single point]"
same,AC50,[3],"6.31 µM [rising, single point]"
CCOc1cc(C)c(Cl)cc1S(=O)(=O)NCc1ccc2c(c1)OCO2,AC50,[1],"15.8 µM [falling, partial curve]"
O=C(c1ccccc1C(=O)N1CCN(c2ccccc2F)CC1)N1CCN(c2ccccc2F)CC1,AC50,[1],"3.98 µM [falling, full curve]"
COc1ccc(CNC(=O)c2cnn(-c3ccc(OC)cc3)c2C2CCN(C(=O)OC(C)(C)C)CC2)cc1,AC50,[1],"39.8 µM [falling, single point]"
Cc1c2cnn(-c3ccccc3)c(=O)c2c(C)n1CC(=O)N1CCN(c2cccc(Cl)c2)CC1,AC50,[1],"25.1 µM [falling, partial curve]"
Cc1cc(C)c(S(=O)(=O)Nc2ccc(-c3ccc(N4CCCCC4)nn3)cc2)c(C)c1,AC50,[1],"6.31 µM [falling, full curve]"

# 3 entries picked at random from the list so far:
smiles,measurement,setting,value
Cc1ccccc1OCC(=O)NCC(c1ccc(Cl)cc1)N1CCOCC1 (configuration not stated),AC50,[1],"31.6 µM [falling, single point]"
Cc1cccc(/C=C\c2ccccc2)n1,AC50,[1],"3.16 µM [rising, partial curve]"
O=C(NCc1ccccc1Cl)c1ccc2nc(Cc3ccccc3)oc2c1,AC50,[1],"31.6 µM [falling, single point]"
